Assay results: paper PMC7160206
Results are given in words; binding and its absence hold for the method and conditions named. Binding calls can cover weak binding; strength is not graded here. For part of these data: Tags and fused reporters may be left off the sequences shown. For part of these data: Binding seen in cells or lysates may run through a third protein. Values belong to the binder of their own block, whether it stands above or below them.

Experiments:
[1] = biological target: GFP-PIRE (Arabidopsis thaliana); test: co-IP; Arabidopsis mesophyll protoplasts of the line 35S::PBL13-3xFLAG/pbl13-2 #8-3 transfected with GFP fusions; anti-GFP (GFP-Trap) immunoprecipitation; IP buffer 50 mM Tris-HCl pH 7.5, 150 mM NaCl, 10% glycerol, 2% IGEPAL; 4 °C
[2] = biological target: GST-PIRE (Arabidopsis thaliana); test: pull-down; purified recombinant proteins: 1 µg GST-PIRE with 3 μg MBP fusion, 4 °C, 2 h, 30 mM HEPES, 180 mM NaCl, 0.2% triton X100; the results call it a GST pull-down, the methods name amylose beads; both purified
[3] = biological target: PIRE fused to YC (Arabidopsis thaliana); test: split reporter; BiFC with citrine halves (PBL13-YN, PIRE-YC) in N. benthamiana leaves; 10 μM MG132 infiltrated 24 h before confocal imaging
[4] = biological target: PIRE (PBL13 interacting RING domain E3 ligase) on the protein microarray (Arabidopsis thaliana); test: peptide or protein array; PATH protein microarray with ~5000 Arabidopsis proteins incubated with V5-tagged PBL13; detected with CY5-tagged V5 antibody; probed once; both purified
[5] = biological target: 3xHA-PIRE (Arabidopsis thaliana); test: co-IP; transient co-expression in N. benthamiana leaves; GFP-Trap immunoprecipitation of YFP fusions, 4 °C, 2 h; IP buffer 150 mM Tris-HCl pH 7.5, 150 mM NaCl, 10% glycerol, 2% IGEPAL
[6] = biological target: pTBS1-PIRE C244S/C247S (Arabidopsis thaliana); test: two-hybrid; LexA system: bait in pTBS1, prey in pJG4-5, yeast EGY48; growth on -UTHL with galactose/raffinose

binding [1]: binds
B1: PBL13-3xFLAG (protein, UniProt F4JZW1 1-494)
chain: MVLCFQDPDNIYSPKKTKKDDGERVITKQKSFLGLSILDISNPSSTTLSEDLSISLAGSDLHVFTQAELRVITQSFSSSNFLGEGGFGPVHKGFIDDKLRPGLKAQPVAVKLLDLDGLQGHREFMTEVMCLGKLKHPNLVKLIGYCCEEAHRLLVYEFMPRGSLESQLFRRCSLPLPWTTRLNIAYEAAKGLQFLHEAEKPIIYRDFKASNILLDSDYTAKLSDFGLAKDGPQGDDTHVSTRVMGTQGYAAPEYIMTGHLTAKSDVYSFGVVLLELLTGRKSVDIARSSRKETLVEWARPMLNDARKLGRIMDPRLEDQYSETGARKAATLAYQCLRYRPKTRPDISTVVSVLQDIKDYKDDIPIGIFTYTVPTKPRREVKETSLQNFDKPRRETKVTSLQNFDKTRREVKDTSLQNFDKTRREVKETSLQNFDKTRREVKETSLQNFDKPRNVSTTDNHQKFRSPAHTARNHRITLRNGYNSPMRNEAGGERY

binding [2]: binds
B2: MBP-PBL13 (protein, UniProt F4JZW1 1-494)
chain: MVLCFQDPDNIYSPKKTKKDDGERVITKQKSFLGLSILDISNPSSTTLSEDLSISLAGSDLHVFTQAELRVITQSFSSSNFLGEGGFGPVHKGFIDDKLRPGLKAQPVAVKLLDLDGLQGHREFMTEVMCLGKLKHPNLVKLIGYCCEEAHRLLVYEFMPRGSLESQLFRRCSLPLPWTTRLNIAYEAAKGLQFLHEAEKPIIYRDFKASNILLDSDYTAKLSDFGLAKDGPQGDDTHVSTRVMGTQGYAAPEYIMTGHLTAKSDVYSFGVVLLELLTGRKSVDIARSSRKETLVEWARPMLNDARKLGRIMDPRLEDQYSETGARKAATLAYQCLRYRPKTRPDISTVVSVLQDIKDYKDDIPIGIFTYTVPTKPRREVKETSLQNFDKPRRETKVTSLQNFDKTRREVKDTSLQNFDKTRREVKETSLQNFDKTRREVKETSLQNFDKPRNVSTTDNHQKFRSPAHTARNHRITLRNGYNSPMRNEAGGERY

binding [3]: binds
B3: PBL13 fused to YN (protein, UniProt F4JZW1 1-494)
chain: MVLCFQDPDNIYSPKKTKKDDGERVITKQKSFLGLSILDISNPSSTTLSEDLSISLAGSDLHVFTQAELRVITQSFSSSNFLGEGGFGPVHKGFIDDKLRPGLKAQPVAVKLLDLDGLQGHREFMTEVMCLGKLKHPNLVKLIGYCCEEAHRLLVYEFMPRGSLESQLFRRCSLPLPWTTRLNIAYEAAKGLQFLHEAEKPIIYRDFKASNILLDSDYTAKLSDFGLAKDGPQGDDTHVSTRVMGTQGYAAPEYIMTGHLTAKSDVYSFGVVLLELLTGRKSVDIARSSRKETLVEWARPMLNDARKLGRIMDPRLEDQYSETGARKAATLAYQCLRYRPKTRPDISTVVSVLQDIKDYKDDIPIGIFTYTVPTKPRREVKETSLQNFDKPRRETKVTSLQNFDKTRREVKDTSLQNFDKTRREVKETSLQNFDKTRREVKETSLQNFDKPRNVSTTDNHQKFRSPAHTARNHRITLRNGYNSPMRNEAGGERY

binding [4]: binds
B4: V5-tagged PBL13 (protein, UniProt F4JZW1 1-494)
chain: MVLCFQDPDNIYSPKKTKKDDGERVITKQKSFLGLSILDISNPSSTTLSEDLSISLAGSDLHVFTQAELRVITQSFSSSNFLGEGGFGPVHKGFIDDKLRPGLKAQPVAVKLLDLDGLQGHREFMTEVMCLGKLKHPNLVKLIGYCCEEAHRLLVYEFMPRGSLESQLFRRCSLPLPWTTRLNIAYEAAKGLQFLHEAEKPIIYRDFKASNILLDSDYTAKLSDFGLAKDGPQGDDTHVSTRVMGTQGYAAPEYIMTGHLTAKSDVYSFGVVLLELLTGRKSVDIARSSRKETLVEWARPMLNDARKLGRIMDPRLEDQYSETGARKAATLAYQCLRYRPKTRPDISTVVSVLQDIKDYKDDIPIGIFTYTVPTKPRREVKETSLQNFDKPRRETKVTSLQNFDKTRREVKDTSLQNFDKTRREVKETSLQNFDKTRREVKETSLQNFDKPRNVSTTDNHQKFRSPAHTARNHRITLRNGYNSPMRNEAGGERY

binding [5]: binds
B5: PBL13-3xHA (protein, UniProt F4JZW1 1-494)
chain: MVLCFQDPDNIYSPKKTKKDDGERVITKQKSFLGLSILDISNPSSTTLSEDLSISLAGSDLHVFTQAELRVITQSFSSSNFLGEGGFGPVHKGFIDDKLRPGLKAQPVAVKLLDLDGLQGHREFMTEVMCLGKLKHPNLVKLIGYCCEEAHRLLVYEFMPRGSLESQLFRRCSLPLPWTTRLNIAYEAAKGLQFLHEAEKPIIYRDFKASNILLDSDYTAKLSDFGLAKDGPQGDDTHVSTRVMGTQGYAAPEYIMTGHLTAKSDVYSFGVVLLELLTGRKSVDIARSSRKETLVEWARPMLNDARKLGRIMDPRLEDQYSETGARKAATLAYQCLRYRPKTRPDISTVVSVLQDIKDYKDDIPIGIFTYTVPTKPRREVKETSLQNFDKPRRETKVTSLQNFDKTRREVKDTSLQNFDKTRREVKETSLQNFDKTRREVKETSLQNFDKPRNVSTTDNHQKFRSPAHTARNHRITLRNGYNSPMRNEAGGERY

binding [6]: binds
B6: PBL13 in pJG4-5 (prey) (protein, UniProt F4JZW1 1-494)
chain: MVLCFQDPDNIYSPKKTKKDDGERVITKQKSFLGLSILDISNPSSTTLSEDLSISLAGSDLHVFTQAELRVITQSFSSSNFLGEGGFGPVHKGFIDDKLRPGLKAQPVAVKLLDLDGLQGHREFMTEVMCLGKLKHPNLVKLIGYCCEEAHRLLVYEFMPRGSLESQLFRRCSLPLPWTTRLNIAYEAAKGLQFLHEAEKPIIYRDFKASNILLDSDYTAKLSDFGLAKDGPQGDDTHVSTRVMGTQGYAAPEYIMTGHLTAKSDVYSFGVVLLELLTGRKSVDIARSSRKETLVEWARPMLNDARKLGRIMDPRLEDQYSETGARKAATLAYQCLRYRPKTRPDISTVVSVLQDIKDYKDDIPIGIFTYTVPTKPRREVKETSLQNFDKPRRETKVTSLQNFDKTRREVKDTSLQNFDKTRREVKETSLQNFDKTRREVKETSLQNFDKPRNVSTTDNHQKFRSPAHTARNHRITLRNGYNSPMRNEAGGERY
